# Results taken from the supplement of paper PMC10849652.
# Chains of the proteins cited; added tags and fusions are not shown. Lines headed by an entry give the natural chain unless they say otherwise; changes in a name come on top.
# UniProt Q9NVW2: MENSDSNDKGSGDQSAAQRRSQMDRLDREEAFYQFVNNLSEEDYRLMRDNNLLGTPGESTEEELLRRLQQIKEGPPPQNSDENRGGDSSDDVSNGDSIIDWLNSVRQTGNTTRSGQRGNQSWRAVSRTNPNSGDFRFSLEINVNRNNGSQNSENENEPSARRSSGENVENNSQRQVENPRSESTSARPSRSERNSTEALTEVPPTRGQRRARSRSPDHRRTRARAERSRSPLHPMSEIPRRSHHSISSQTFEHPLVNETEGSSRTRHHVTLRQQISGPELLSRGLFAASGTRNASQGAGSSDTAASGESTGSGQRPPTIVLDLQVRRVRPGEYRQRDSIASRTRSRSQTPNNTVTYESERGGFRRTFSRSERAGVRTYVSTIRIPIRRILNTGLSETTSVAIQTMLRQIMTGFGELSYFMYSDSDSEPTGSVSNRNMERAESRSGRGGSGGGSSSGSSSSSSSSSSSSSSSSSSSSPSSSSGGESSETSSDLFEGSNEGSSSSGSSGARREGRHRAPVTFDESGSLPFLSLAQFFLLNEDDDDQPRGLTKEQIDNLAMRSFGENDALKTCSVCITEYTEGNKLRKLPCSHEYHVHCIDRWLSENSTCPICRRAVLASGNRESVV
# UniProt Q92546: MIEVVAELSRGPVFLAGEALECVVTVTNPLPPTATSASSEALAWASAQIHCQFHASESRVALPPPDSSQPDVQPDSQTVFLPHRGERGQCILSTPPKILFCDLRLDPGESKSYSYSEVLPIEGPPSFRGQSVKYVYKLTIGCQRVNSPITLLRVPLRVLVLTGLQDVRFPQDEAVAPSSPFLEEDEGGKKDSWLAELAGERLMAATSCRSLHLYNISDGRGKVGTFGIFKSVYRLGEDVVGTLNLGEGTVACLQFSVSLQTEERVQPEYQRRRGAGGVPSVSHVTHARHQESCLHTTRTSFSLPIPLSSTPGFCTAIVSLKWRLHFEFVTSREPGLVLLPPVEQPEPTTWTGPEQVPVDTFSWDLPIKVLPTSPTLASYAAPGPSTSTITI
# UniProt P35251: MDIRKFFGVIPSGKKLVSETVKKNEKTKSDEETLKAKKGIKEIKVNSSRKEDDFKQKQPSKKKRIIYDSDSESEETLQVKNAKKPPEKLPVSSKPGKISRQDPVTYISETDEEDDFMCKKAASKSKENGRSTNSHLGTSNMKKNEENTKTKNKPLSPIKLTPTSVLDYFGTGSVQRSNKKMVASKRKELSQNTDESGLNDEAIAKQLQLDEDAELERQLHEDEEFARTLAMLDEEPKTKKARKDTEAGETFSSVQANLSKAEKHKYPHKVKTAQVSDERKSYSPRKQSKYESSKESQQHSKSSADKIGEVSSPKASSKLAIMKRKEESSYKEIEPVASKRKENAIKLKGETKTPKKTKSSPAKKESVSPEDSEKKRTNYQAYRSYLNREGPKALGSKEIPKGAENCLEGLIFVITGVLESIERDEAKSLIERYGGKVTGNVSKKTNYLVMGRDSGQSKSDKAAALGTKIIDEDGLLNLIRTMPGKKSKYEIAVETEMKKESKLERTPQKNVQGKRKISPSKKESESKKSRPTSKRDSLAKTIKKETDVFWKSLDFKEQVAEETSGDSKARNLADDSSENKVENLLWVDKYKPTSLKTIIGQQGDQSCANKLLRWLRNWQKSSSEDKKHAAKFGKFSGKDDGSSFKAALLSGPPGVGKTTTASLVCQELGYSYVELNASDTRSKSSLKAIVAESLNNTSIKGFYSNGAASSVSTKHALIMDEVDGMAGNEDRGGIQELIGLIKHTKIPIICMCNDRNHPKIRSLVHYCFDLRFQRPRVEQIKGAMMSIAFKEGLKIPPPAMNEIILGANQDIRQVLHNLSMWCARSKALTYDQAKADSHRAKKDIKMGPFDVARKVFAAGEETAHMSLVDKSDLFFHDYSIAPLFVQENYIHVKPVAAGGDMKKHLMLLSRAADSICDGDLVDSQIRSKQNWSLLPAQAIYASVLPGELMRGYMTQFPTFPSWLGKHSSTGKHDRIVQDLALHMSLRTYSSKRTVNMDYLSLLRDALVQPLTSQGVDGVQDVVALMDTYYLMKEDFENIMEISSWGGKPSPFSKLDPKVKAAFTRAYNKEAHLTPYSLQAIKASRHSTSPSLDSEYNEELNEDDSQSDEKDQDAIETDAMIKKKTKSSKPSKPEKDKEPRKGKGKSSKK
# UniProt Q5UIP0: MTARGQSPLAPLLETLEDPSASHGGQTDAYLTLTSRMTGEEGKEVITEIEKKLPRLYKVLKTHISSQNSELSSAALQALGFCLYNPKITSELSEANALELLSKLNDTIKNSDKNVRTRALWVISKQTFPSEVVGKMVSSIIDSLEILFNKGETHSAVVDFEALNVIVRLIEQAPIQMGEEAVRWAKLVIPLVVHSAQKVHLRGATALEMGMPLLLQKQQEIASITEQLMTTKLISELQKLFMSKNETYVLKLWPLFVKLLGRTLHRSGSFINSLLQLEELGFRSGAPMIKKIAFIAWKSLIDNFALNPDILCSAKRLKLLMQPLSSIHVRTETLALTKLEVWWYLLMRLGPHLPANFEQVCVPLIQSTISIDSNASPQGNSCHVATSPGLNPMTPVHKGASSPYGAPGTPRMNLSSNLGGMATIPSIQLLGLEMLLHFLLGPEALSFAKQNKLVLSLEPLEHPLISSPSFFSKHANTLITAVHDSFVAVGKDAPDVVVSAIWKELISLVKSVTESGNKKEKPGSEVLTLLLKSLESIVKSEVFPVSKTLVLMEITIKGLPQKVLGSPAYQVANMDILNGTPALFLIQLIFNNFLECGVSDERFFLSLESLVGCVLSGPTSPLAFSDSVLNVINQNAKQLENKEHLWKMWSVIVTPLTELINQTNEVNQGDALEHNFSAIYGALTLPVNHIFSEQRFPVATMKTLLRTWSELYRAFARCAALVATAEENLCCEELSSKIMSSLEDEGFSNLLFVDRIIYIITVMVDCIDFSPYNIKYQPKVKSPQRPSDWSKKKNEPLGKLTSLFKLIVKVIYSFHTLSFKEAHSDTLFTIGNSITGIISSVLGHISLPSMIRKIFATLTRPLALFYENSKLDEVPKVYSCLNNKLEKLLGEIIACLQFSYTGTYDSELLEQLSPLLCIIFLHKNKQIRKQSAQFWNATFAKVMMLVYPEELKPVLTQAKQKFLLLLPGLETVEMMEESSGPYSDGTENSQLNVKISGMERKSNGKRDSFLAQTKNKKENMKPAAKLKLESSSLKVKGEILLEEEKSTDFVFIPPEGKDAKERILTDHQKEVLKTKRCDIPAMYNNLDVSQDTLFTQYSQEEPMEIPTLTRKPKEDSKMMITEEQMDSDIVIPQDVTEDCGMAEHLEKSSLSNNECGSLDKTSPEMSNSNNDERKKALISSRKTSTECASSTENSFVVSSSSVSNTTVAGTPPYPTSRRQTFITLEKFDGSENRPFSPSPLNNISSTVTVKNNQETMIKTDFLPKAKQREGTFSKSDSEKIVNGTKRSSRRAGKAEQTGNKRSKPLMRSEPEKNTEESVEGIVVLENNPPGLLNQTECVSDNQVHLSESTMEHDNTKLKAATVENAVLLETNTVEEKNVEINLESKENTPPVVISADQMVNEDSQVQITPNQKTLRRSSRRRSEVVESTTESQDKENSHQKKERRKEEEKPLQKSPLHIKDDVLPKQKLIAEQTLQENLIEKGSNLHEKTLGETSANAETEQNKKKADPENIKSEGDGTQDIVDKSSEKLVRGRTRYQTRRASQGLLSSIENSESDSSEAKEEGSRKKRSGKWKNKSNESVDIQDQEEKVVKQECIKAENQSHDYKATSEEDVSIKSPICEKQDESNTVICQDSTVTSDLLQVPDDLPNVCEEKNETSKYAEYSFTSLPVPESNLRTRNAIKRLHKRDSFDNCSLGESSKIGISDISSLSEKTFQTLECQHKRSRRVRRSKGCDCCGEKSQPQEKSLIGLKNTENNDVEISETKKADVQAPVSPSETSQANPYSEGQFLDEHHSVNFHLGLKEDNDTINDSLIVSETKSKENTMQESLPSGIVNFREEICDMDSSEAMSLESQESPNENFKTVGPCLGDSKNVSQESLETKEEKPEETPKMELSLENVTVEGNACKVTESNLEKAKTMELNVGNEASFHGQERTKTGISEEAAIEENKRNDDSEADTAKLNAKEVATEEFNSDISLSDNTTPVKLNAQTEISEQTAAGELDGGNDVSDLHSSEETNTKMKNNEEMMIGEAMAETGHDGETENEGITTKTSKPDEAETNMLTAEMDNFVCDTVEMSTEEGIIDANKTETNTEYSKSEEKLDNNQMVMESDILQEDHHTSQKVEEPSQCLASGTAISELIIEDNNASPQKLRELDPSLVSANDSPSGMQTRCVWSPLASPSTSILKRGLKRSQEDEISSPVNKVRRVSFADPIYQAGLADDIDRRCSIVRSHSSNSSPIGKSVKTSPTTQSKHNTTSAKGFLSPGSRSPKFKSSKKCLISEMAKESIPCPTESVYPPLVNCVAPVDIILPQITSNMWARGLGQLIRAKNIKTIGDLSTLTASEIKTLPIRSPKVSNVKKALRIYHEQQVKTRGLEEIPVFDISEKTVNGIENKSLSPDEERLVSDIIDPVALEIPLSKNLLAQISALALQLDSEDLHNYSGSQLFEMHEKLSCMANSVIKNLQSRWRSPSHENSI
# UniProt Q8NDN9: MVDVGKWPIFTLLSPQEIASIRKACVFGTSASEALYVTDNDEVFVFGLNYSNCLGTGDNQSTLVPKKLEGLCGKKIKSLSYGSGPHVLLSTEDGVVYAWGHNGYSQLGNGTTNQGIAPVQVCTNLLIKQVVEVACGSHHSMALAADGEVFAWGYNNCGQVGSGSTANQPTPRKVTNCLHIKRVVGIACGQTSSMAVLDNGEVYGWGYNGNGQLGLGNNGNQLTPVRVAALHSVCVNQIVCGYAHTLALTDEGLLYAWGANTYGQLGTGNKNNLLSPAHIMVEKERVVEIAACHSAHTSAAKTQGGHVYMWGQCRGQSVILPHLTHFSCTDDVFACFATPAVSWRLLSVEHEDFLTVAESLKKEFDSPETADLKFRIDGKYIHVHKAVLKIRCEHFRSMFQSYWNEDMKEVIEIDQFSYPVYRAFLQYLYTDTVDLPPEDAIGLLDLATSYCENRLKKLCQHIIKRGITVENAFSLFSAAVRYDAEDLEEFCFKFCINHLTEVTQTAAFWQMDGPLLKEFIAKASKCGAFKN
# UniProt Q9Y225: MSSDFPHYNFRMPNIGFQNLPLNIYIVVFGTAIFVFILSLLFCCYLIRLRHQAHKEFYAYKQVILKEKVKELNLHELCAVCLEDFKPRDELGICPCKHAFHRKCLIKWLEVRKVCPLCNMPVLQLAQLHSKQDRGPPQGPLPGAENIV
# UniProt Q6NUQ1: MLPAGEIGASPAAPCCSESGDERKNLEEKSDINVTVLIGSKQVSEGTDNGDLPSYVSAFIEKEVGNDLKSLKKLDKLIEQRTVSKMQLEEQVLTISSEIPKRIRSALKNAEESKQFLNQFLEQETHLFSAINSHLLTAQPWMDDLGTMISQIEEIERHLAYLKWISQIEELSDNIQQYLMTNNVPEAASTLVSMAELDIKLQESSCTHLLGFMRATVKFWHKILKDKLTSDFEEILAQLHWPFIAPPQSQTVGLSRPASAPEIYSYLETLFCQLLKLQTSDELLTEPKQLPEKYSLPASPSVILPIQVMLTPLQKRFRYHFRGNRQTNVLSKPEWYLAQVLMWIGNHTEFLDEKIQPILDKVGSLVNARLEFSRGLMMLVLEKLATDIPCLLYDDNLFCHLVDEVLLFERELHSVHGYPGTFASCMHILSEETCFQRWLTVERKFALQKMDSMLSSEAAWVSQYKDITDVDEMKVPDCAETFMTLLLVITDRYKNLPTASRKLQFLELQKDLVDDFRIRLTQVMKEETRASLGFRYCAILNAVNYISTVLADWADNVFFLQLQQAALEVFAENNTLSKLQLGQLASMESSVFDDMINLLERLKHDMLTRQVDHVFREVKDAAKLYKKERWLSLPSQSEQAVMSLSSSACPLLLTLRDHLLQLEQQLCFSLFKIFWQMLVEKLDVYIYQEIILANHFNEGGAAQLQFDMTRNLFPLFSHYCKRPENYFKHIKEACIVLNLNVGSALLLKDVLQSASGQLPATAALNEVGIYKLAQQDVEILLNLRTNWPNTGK
# UniProt Q6NTF9: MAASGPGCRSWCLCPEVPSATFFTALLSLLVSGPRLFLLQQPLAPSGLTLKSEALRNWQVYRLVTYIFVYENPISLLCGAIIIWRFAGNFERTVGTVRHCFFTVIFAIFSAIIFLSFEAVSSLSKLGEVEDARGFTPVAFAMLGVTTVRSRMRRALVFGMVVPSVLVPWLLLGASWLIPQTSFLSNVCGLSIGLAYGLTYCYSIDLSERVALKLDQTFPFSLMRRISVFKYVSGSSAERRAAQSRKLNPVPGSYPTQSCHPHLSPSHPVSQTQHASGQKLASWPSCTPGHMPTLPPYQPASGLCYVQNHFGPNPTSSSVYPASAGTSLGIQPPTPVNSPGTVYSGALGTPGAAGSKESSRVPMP
# This is one part of the list.
# Compound: CS(=O)(=O)c1ccc(-c2cnc(N)c(C(=O)Nc3ccccc3)n2)cc1
# Experiment: log2 fold change, soluble protein after heating vs DMSO (PISA); higher = thermal stabilisation; K562 cells, 10 uM, 30 min; active = over 0.2 and 3.5 SD of the protein, either way, in both replicates (recomputed)
# Method in brief: (§1)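 Aliquots of K562 cells (2×10^6 cells/mL) treated with 10 μM compound for 30 min were heated for 3 min over 48°C-58°C. After pooling and extraction in PBS with 0.5% NP-40 at 4°C, soluble protein from a 21,000xg, 90 min spin was quantified by TMTpro 16plex LC-MS/MS with channel sums equalised. Thermal stability is expressed against control samples, from duplicates, as a log2 fold change.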
row,Target,log2 fold change
1,RICTOR isoform 3 (UniProt Q6R327),inactive: -0.017
2,RLIM (UniProt Q9NVW2),inactive: -0.058
3,RGP1 (UniProt Q92546),inactive: 0.116
4,RCE1 (UniProt Q9Y256),inactive: 0.043
5,RFX7 (UniProt Q2KHR2),inactive: 0.012
6,RGN (UniProt Q15493),inactive: -0.098
7,RNF166 (UniProt Q96A37),inactive: -0.006
8,RFC1 (UniProt P35251),inactive: 0.119
9,RIF1 (UniProt Q5UIP0),inactive: -0.101
10,RNF168 (UniProt Q8IYW5),inactive: -0.177
11,RCBTB1 (UniProt Q8NDN9),inactive: -0.128

# Compound: C[C@@H](Oc1cc(-c2cnn(C3CCNCC3)c2)cnc1N)c1c(Cl)ccc(F)c1Cl [crizotinib]
# Experiment: as above
# Method in brief: as §1
row,Target,log2 fold change
1,RNF11 (UniProt Q9Y3C5),inactive: 0.22
2,RIC8B isoform 1 (UniProt Q9NVN3),inactive: -0.063
3,RIPOR1 isoform 4 (UniProt Q6ZS17),inactive: -0.046
4,RBMY1E (UniProt A6NEQ0),inactive: -0.122
5,RIT1 isoform 3 (UniProt Q92963),inactive: 0.078
6,RNF170 (UniProt Q96K19),inactive: -0.083
7,RNF24 isoform 2 (UniProt Q9Y225),inactive: -0.06
8,RINT1 (UniProt Q6NUQ1),inactive: -0.056
9,RHBDD2 isoform 2 (UniProt Q6NTF9),inactive: -0.059
10,RNF111 isoform 3 (UniProt Q6ZNA4),inactive: 0.075
11,RNF130 (UniProt Q86XS8),inactive: 0.239
12,RBP4 (UniProt P02753),inactive: 0.175
13,RHD (UniProt Q02161),inactive: 0.032
14,RMDN2 isoform 2 (UniProt Q96LZ7),inactive: 0

# Compound: C[C@@H]1COCCN1C2=NC(=NC(=C2)C3(CC3)S(=O)(=O)C)C4=C5C=CNC5=CC=C4
# Experiment: as above
# Method in brief: as §1
row,Target,log2 fold change
1,RICTOR isoform 3 (UniProt Q6R327),inactive: -0.146
2,RIC8B isoform 1 (UniProt Q9NVN3),inactive: -0.027
3,RFXANK (UniProt O14593),inactive: -0.089
4,RGS14 (UniProt O43566),inactive: 0.09
5,RILPL2 (UniProt Q969X0),inactive: 0.065
6,RGP1 (UniProt Q92546),inactive: 0.058
7,RCL1 (UniProt Q5VZU2),inactive: -0.062
8,RIPOR1 isoform 4 (UniProt Q6ZS17),inactive: 0
9,RCE1 (UniProt Q9Y256),inactive: 0.753
10,RIT1 isoform 3 (UniProt Q92963),inactive: -0.138
11,RNF170 (UniProt Q96K19),inactive: -0.063
12,RNF24 isoform 2 (UniProt Q9Y225),inactive: -0.091
13,RINT1 (UniProt Q6NUQ1),inactive: -0.389
14,RHBDD2 isoform 2 (UniProt Q6NTF9),inactive: 0.135
15,RC3H2 (UniProt Q9HBD1),inactive: -0.14
16,RIF1 (UniProt Q5UIP0),inactive: -0.07
17,RCBTB1 (UniProt Q8NDN9),inactive: -0.001

# Compound: C[C@H](C1=CC=C(C=C1)C(=O)NC2=C3C=CNC3=NC=C2)N
# Experiment: as above
# Method in brief: as §1
row,Target,log2 fold change
1,RLIM (UniProt Q9NVW2),inactive: -0.147
2,RNF185 (UniProt Q96GF1),inactive: -0.036
3,RGS14 (UniProt O43566),inactive: 0.478
4,RMI2 (UniProt Q96E14),inactive: 0.095
5,RNF169 (UniProt Q8NCN4),inactive: -0.091
6,RGP1 (UniProt Q92546),inactive: -0.061
7,RCE1 (UniProt Q9Y256),inactive: -0.01
8,RBMY1E (UniProt A6NEQ0),inactive: -0.12
9,RNF170 (UniProt Q96K19),inactive: -0.04
10,RINT1 (UniProt Q6NUQ1),inactive: 0.412
11,REX1BD (UniProt Q96EN9),inactive: 0.388
12,RHBDD2 isoform 2 (UniProt Q6NTF9),inactive: -0.002
13,RNF130 (UniProt Q86XS8),inactive: -0.042
14,RNF166 (UniProt Q96A37),inactive: -0.07
15,RECQL5 (UniProt O94762),inactive: 0.259
16,RBP4 (UniProt P02753),inactive: -0.242
17,RHD (UniProt Q02161),inactive: 0.052
18,RFC1 (UniProt P35251),inactive: 0.214
19,RIF1 (UniProt Q5UIP0),inactive: 0.184
20,RCBTB1 (UniProt Q8NDN9),inactive: 0.172

# Compound: C[C@H](Nc1ncnc2nc[nH]c12)c1cc2cccc(Cl)c2c(=O)n1-c1ccccc1 [duvelisib]
# Experiment: as above
# Method in brief: as §1
row,Target,log2 fold change
1,RBP1 isoform 3 (UniProt P09455),inactive: -0.383
2,RLIM (UniProt Q9NVW2),inactive: 0.149
3,RMI2 (UniProt Q96E14),inactive: 0.081
4,RNF169 (UniProt Q8NCN4),inactive: -0.267
5,RCL1 (UniProt Q5VZU2),inactive: -0.259
6,RCE1 (UniProt Q9Y256),inactive: 0.046
7,RNF170 (UniProt Q96K19),inactive: 0.165
8,RFX7 (UniProt Q2KHR2),inactive: 0.017
9,RNF24 isoform 2 (UniProt Q9Y225),inactive: 0.016
10,RINT1 (UniProt Q6NUQ1),inactive: 0
11,RHBDD2 isoform 2 (UniProt Q6NTF9),inactive: 0.086
12,RNF166 (UniProt Q96A37),inactive: -0.104
13,RECQL5 (UniProt O94762),inactive: 0.062
14,RBP4 (UniProt P02753),inactive: -0.011
15,RFC1 (UniProt P35251),inactive: 0.031
16,RIF1 (UniProt Q5UIP0),inactive: 0.046
17,RNF168 (UniProt Q8IYW5),inactive: -0.343
18,RCBTB1 (UniProt Q8NDN9),inactive: -0.238
